Measured values as given in the supplement of paper PMC10849652.
Some of the results follow.

Protein sequences, listed by entry. Tags and fused reporters are not part of them. Lines headed by an entry give the natural chain unless they say otherwise; changes in a name come on top.
UniProt Q53F19: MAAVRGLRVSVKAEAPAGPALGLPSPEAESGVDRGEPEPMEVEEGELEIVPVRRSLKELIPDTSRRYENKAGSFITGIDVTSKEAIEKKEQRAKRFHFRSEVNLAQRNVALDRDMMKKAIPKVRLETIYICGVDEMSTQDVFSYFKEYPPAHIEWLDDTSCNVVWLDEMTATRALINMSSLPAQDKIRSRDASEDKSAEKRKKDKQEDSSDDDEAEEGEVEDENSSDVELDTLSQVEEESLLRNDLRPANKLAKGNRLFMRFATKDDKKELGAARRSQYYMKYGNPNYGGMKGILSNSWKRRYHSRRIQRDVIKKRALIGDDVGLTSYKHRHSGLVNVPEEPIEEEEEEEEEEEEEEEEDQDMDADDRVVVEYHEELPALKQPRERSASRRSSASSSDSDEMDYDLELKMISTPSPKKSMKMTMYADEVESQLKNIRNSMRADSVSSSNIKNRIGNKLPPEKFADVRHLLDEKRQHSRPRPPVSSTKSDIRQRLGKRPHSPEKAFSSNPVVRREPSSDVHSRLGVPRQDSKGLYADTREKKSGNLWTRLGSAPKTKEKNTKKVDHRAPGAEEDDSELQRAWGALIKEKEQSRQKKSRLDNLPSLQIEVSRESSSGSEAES
UniProt Q15788: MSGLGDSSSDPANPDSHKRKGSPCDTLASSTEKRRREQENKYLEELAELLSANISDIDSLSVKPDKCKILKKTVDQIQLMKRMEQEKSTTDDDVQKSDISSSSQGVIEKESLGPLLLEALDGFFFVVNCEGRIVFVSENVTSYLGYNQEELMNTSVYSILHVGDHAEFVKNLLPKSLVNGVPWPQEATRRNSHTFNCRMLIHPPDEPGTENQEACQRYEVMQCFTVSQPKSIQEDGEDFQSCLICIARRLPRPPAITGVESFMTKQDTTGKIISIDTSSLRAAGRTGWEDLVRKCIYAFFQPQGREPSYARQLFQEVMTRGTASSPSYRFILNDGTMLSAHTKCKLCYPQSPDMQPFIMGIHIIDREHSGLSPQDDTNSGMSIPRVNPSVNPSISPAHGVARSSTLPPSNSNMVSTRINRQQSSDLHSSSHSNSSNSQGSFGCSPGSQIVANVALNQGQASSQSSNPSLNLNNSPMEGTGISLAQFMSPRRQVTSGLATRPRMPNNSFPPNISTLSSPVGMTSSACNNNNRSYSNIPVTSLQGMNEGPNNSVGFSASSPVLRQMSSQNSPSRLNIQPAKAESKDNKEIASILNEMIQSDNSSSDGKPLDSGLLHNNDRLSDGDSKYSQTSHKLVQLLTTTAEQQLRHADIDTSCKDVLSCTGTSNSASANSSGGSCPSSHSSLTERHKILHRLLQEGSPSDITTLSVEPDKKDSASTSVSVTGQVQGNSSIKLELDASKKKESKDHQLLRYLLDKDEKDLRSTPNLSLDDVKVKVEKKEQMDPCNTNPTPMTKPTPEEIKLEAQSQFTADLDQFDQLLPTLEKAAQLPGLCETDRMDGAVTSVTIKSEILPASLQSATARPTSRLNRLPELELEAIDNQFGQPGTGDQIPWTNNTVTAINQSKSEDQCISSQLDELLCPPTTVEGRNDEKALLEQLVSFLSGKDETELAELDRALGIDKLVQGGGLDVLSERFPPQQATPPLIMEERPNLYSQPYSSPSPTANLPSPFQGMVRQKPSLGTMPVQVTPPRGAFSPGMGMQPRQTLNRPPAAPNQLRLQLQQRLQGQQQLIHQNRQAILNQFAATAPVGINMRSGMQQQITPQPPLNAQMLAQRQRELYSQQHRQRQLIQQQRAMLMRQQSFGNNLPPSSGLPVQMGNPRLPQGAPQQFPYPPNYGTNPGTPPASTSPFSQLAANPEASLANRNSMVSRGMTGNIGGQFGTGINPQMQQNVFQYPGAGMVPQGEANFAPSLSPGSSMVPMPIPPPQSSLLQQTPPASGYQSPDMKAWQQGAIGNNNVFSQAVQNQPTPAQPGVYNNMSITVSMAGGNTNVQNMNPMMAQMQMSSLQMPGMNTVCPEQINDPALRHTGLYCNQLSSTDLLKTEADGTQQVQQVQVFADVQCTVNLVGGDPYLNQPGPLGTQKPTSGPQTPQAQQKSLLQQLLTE
UniProt Q9BQG0: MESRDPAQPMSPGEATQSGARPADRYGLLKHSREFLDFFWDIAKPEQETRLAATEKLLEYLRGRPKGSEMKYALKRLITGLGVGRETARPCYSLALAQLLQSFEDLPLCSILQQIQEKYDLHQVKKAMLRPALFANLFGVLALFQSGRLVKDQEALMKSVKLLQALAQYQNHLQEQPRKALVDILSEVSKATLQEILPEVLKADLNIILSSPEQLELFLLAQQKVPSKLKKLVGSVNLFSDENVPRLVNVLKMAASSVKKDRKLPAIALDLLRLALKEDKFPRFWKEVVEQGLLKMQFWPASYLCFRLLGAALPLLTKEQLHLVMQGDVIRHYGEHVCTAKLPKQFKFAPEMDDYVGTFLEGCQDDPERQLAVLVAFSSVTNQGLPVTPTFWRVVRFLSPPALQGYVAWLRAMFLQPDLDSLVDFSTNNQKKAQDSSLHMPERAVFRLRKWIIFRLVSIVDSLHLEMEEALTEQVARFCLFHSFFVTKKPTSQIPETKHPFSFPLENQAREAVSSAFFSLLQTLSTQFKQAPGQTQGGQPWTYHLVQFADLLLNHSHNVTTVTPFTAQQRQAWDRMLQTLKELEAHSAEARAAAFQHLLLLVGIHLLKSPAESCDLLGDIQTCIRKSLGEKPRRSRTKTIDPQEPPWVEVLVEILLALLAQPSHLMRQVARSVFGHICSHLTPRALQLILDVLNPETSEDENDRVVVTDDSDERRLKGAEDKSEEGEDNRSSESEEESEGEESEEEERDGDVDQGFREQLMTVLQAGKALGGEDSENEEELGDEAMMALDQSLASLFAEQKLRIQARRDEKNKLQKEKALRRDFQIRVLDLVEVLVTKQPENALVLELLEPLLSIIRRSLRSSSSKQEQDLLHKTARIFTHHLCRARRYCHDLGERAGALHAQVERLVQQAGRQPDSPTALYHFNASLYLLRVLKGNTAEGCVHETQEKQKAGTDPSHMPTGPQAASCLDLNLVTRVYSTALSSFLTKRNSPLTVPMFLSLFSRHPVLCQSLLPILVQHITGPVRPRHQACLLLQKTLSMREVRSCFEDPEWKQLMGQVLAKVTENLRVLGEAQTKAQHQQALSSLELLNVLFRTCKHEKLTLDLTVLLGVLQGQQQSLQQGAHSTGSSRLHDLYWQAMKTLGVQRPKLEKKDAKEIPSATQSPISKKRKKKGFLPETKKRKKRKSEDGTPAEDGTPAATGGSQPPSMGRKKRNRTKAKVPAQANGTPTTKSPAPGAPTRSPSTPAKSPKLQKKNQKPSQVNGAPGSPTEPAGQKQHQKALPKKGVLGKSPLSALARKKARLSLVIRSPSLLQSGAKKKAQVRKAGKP
UniProt P19338, whole entry, looked up: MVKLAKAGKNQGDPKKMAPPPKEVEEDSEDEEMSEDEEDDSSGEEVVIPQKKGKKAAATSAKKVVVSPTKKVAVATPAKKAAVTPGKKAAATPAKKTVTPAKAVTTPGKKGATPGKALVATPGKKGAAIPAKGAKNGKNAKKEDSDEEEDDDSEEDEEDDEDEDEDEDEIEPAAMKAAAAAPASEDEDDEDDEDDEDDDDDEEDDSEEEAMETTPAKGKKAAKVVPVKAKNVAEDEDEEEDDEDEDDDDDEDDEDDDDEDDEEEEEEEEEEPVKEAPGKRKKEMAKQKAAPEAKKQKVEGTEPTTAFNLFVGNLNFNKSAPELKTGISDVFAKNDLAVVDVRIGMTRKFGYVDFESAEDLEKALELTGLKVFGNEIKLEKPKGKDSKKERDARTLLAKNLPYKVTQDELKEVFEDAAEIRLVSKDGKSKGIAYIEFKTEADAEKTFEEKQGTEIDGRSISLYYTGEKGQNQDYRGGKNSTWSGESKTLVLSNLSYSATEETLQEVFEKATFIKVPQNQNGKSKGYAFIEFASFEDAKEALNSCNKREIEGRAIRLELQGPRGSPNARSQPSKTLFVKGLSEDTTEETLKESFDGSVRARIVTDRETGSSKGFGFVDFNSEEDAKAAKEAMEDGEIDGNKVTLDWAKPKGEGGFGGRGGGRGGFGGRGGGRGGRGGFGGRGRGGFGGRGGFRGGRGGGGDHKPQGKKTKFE
UniProt Q96DR8: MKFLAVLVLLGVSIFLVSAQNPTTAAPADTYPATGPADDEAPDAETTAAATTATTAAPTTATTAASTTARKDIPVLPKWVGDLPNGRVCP
UniProt Q15021, whole entry, looked up: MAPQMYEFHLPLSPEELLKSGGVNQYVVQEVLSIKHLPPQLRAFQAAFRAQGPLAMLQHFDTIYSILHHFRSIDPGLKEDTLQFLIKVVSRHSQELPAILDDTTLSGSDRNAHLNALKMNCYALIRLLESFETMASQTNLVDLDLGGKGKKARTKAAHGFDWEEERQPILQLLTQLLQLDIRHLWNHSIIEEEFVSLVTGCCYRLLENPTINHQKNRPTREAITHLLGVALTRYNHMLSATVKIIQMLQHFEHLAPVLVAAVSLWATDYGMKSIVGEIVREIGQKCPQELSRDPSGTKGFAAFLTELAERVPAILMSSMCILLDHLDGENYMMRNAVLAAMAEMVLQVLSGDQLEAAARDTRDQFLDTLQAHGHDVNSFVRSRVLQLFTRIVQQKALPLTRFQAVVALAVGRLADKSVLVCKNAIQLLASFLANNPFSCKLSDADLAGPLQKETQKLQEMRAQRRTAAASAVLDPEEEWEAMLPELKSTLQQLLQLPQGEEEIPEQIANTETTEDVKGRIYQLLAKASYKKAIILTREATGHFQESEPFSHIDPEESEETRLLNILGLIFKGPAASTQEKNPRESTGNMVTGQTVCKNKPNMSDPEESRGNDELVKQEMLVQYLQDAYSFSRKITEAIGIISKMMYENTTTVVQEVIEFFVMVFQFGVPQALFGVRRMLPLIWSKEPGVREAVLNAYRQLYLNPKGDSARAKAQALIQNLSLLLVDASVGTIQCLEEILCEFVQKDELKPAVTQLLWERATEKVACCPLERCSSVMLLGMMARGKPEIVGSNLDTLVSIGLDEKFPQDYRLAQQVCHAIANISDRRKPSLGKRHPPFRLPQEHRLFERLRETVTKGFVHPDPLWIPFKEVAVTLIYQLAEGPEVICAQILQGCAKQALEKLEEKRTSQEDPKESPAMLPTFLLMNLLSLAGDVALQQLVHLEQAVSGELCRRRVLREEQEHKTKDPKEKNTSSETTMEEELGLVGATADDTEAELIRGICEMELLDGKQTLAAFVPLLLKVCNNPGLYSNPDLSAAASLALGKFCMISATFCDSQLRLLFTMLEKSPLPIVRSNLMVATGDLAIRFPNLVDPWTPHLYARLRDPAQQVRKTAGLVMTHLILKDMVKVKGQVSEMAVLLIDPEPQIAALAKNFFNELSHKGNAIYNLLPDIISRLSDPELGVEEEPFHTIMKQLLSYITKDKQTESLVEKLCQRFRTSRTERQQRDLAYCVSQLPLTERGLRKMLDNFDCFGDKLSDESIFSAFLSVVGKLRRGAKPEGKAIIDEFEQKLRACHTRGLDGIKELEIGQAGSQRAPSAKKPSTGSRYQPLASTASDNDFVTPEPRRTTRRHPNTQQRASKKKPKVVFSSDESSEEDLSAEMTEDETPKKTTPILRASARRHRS
UniProt Q9BXJ9: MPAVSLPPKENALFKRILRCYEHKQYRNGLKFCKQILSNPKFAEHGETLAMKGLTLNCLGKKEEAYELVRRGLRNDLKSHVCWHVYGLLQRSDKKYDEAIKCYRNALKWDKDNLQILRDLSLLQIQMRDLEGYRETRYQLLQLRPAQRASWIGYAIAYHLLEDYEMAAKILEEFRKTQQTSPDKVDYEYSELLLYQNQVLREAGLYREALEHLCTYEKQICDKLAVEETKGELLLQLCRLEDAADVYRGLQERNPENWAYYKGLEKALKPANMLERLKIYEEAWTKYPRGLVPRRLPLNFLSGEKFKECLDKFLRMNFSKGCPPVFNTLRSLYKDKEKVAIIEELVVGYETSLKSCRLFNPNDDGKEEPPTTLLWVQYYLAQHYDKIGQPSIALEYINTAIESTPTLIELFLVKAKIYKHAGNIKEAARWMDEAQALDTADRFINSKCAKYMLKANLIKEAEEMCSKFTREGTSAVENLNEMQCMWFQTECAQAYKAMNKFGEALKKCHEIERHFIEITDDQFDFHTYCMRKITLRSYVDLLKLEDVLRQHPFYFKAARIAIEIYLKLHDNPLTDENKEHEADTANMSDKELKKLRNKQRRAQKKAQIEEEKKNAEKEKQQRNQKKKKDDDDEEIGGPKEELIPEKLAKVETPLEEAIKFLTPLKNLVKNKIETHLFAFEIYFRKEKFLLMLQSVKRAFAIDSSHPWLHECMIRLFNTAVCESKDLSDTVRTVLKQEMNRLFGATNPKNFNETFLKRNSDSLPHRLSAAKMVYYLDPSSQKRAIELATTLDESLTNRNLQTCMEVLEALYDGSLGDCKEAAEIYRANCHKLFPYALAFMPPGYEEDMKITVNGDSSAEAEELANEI
UniProt Q99417: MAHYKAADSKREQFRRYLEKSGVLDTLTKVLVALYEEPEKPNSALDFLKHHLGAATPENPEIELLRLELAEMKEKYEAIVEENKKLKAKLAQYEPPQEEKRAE

Legend:
Test in all cases: log2 fold change, soluble protein after heating vs DMSO (PISA); higher = thermal stabilisation; K562 lysate, 10 uM; active = over 0.2 and 3.5 SD of the protein, either way, in both replicates (recomputed)
erlotinib = compound: C#Cc1cccc(Nc2ncnc3cc(OCCOC)c(OCCOC)cc23)c1 [erlotinib]
Summary of the method: (§1)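 Following dounce homogenisation of K562 pellets in PBS pH 7.4 with 1 mM MgCl2, crude extract at 1 mg/mL protein was incubated for 30 min with 10 μM compound. Aliquots were then heated for 3 min over 48°C-58°C and pooled, NP-40 was added to 0.5% at 4°C, and soluble protein was recovered as the supernatant at 21,000xg for 90 min. Channel-sum-equalised TMTpro 16plex LC-MS/MS quantified this protein. Each value, from duplicates, is a log-two fold change in thermal stability relative to solvent controls.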

[1] = compound: C/C(=N\NC(=O)C1=CC(=CC=C1)S(=O)(=O)N2CCOCC2)/C3=C(C=CC(=C3)Cl)O
Summary of the method: as §1

[2] = compound: C1=CC(=CC=C1C2=NC3=C(N2)C=C(C=C3)C(=O)N)OC4=CC=C(C=C4)Cl
Summary of the method: as §1

[3] = compound: C1=CC2=C(C=CC(=C2)/C=C\3/C(=O)NC(=NCC4=CC=CS4)S3)N=C1
Summary of the method: as §1

[4] = compound: C1=CC2=NC=CN=C2C=C1/C=C/3\C(=O)NC(=O)S3
Summary of the method: as §1

[5] = compound: C1=CC=C(C=C1)C2=NC(=C(N2)C3=CC=NC=C3)C4=CC(=C(C=C4)Cl)O
Summary of the method: as §1

[6] = compound: C1=CC=C2C(=C1)C3=NNC4=CC=CC(=C43)C2=O
Summary of the method: as §1

[7] = compound: C1CCN(C1)C(=O)NC2=CC=CC(=C2)NC3=NC=C(C(=N3)NCCC4=CN=CN4)Br
Summary of the method: as §1

[8] = compound: C1CN(CCC1(CC2=CC=C(C=C2)Cl)N)C3=NC=NC4=C3C=CN4
Summary of the method: as §1

IRAK-1-4 Inhibitor I = compound: C1COCCN1CCN2C3=CC=CC=C3N=C2NC(=O)C4=CC(=CC=C4)[N+](=O)[O-] [IRAK-1-4 Inhibitor I]
Summary of the method: as §1

ibrutinib = compound: C=CC(=O)N1CCC[C@@H](n2nc(-c3ccc(Oc4ccccc4)cc3)c3c(N)ncnc32)C1 [ibrutinib]
Summary of the method: as §1

[9] = compound: CC(=O)c1cnc2ccc(-c3cc(Cl)c(O)c(Cl)c3)nc2c1N[C@H]1CC[C@H](CN(C)C)CC1
Summary of the method: as §1

ralimetinib = compound: CC(C)(C)Cn1c(N)nc2ccc(-c3[nH]c(C(C)(C)C)nc3-c3ccc(F)cc3)nc21 [ralimetinib]
Summary of the method: as §1

[10] = compound: CC(C)(O)CC(=O)NCCn1ccc2ncnc(Nc3ccc(Oc4cccc(C(F)(F)F)c4)c(Cl)c3)c21
Summary of the method: as §1

[11] = compound: CC(C)C1=C2N=C(C=C(N2N=C1)NCC3=CC=CC=C3)NCCCCCCN
Summary of the method: as §1

[12] = compound: CC1=C(C(CC(=O)N1)C2=CC=C(C=C2)C(F)(F)F)C(=O)NC3=C(C=C4C(=C3)C=NN4)F
Summary of the method: as §1

[13] = compound: CC1=C(C2=C(C=C1)C(=O)C3=CC=CC=C3N2CCCN)C
Summary of the method: as §1

[14] = compound: CC1=C(C=C(C=C1)NC(=O)C2=CC(=CC=C2)C(C)(C)C#N)NC3=CC4=C(C=C3)N=CN(C4=O)C
Summary of the method: as §1

[15] = compound: CC1=C(C=C(C=C1)NC(=O)C2=CC(=CC=C2)N(C)C)NC(=O)C3=CC=C(C=C3)O
Summary of the method: as §1

[16] = compound: CC1=CC=C(C=C1)SC2=C3C=C(SC3=CN=C2)C(=O)N
Summary of the method: as §1

Measured: log2 fold change

NCBP3 (UniProt Q53F19)
inactive: erlotinib 0.073 | [1] -0.096 | [2] 0.004 | [3] 0.099 | [4] 0.005 | [5] 0.022 | [6] 0.014 | [7] -0.001 | [8] -0.111 | IRAK-1-4 Inhibitor I 0.059 | ibrutinib -0.021 | [9] 0.01 | ralimetinib -0.106 | [10] -0.061 | [11] 0.011 | [12] -0.032 | [13] 0.024 | [14] -0.004 | [15] 0.053 | [16] 0.013

NCOA1 (UniProt Q15788)
inactive: erlotinib 0.057 | [1] -0.011 | [2] 0.03 | [3] -0.072 | [4] -0.039 | [5] 0.027 | [6] 0.056 | [7] -0.016 | [8] -0.062 | IRAK-1-4 Inhibitor I 0.042 | ibrutinib -0.021 | [9] 0.006 | ralimetinib 0.008 | [10] -0.042 | [11] 0.064 | [12] 0.027 | [13] -0.006 | [14] 0.009 | [15] -0.012 | [16] -0.054

NAP1L5 (UniProt Q96NT1)
inactive: erlotinib -0.003 | [1] -0.023 | [2] 0.017 | [3] -0.014 | [4] -0.014 | [5] 0.084 | [6] -0.116 | [7] -0.057 | [8] 0 | IRAK-1-4 Inhibitor I -0.059 | ibrutinib -0.056 | [9] 0.018 | ralimetinib -0.034 | [10] 0.034 | [11] -0.037 | [12] -0.036 | [13] -0.045 | [14] -0.13 | [15] -0.036 | [16] -0.009

NCAPH (UniProt Q15003)
inactive: erlotinib 0.036 | [1] -0.008 | [2] -0.006 | [3] -0.007 | [4] -0.002 | [5] -0.012 | [6] -0.063 | [7] -0.008 | [8] -0.018 | IRAK-1-4 Inhibitor I 0 | ibrutinib 0.006 | [9] 0.016 | ralimetinib -0.002 | [10] -0.031 | [11] -0.013 | [12] 0.003 | [13] -0.001 | [14] -0.003 | [15] 0.012 | [16] 0.011

NAA35 (UniProt Q5VZE5)
inactive: erlotinib 0.017 | [1] 0.054 | [2] -0.023 | [3] 0.115 | [4] 0.021 | [5] 0.01 | [6] -0.002 | [7] -0.026 | [8] -0.025 | IRAK-1-4 Inhibitor I 0.013 | ibrutinib -0.005 | [9] -0.017 | ralimetinib 0.006 | [10] 0.042 | [11] -0.01 | [12] -0.008 | [13] -0.004 | [14] -0.006 | [15] 0.017 | [16] -0.02

MYBBP1A isoform 2 (UniProt Q9BQG0)
inactive: erlotinib 0.029 | [1] -0.021 | [2] -0.062 | [3] 0.02 | [4] -0.011 | [5] 0.022 | [6] 0.011 | [7] 0.001 | [8] 0.045 | IRAK-1-4 Inhibitor I -0.008 | ibrutinib -0.018 | [9] -0.013 | ralimetinib 0.039 | [10] -0.01 | [11] -0.019 | [12] 0.004 | [13] -0.061 | [14] -0.015 | [15] 0.023 | [16] 0.021

NACA (UniProt E9PAV3)
inactive: erlotinib -0.011 | [1] -0.144 | [2] 0.066 | [3] -0.016 | [4] -0.049 | [5] 0 | [6] -0.002 | [7] -0.035 | [8] 0.007 | IRAK-1-4 Inhibitor I 0.01 | ibrutinib 0.004 | [9] -0.001 | ralimetinib -0.01 | [10] -0.04 | [11] -0.005 | [12] -0.014 | [13] -0.015 | [14] 0.033 | [15] 0.001 | [16] -0.026

NABP2 (UniProt Q9BQ15)
inactive: erlotinib -0.011 | [1] -0.038 | [2] 0.065 | [3] -0.021 | [4] -0.005 | [5] 0.05 | [6] 0.006 | [7] 0.014 | [8] 0.075 | IRAK-1-4 Inhibitor I -0.01 | ibrutinib -0.002 | [9] -0.055 | ralimetinib 0 | [10] -0.004 | [11] -0.038 | [12] -0.09 | [13] -0.237 | [14] 0.076 | [15] 0.035 | [16] -0.066

NCOA2 (UniProt Q15596)
inactive: erlotinib 0.015 | [1] 0.025 | [2] 0.061 | [3] -0.017 | [4] -0.082 | [5] -0.036 | [6] 0.026 | [7] -0.031 | [8] 0.028 | IRAK-1-4 Inhibitor I -0.019 | ibrutinib -0.06 | [9] 0.097 | ralimetinib 0.01 | [10] 0.003 | [11] -0.014 | [12] 0.06 | [13] -0.027 | [14] 0.01 | [15] -0.037 | [16] -0.189

NCL (UniProt P19338)
inactive: erlotinib -0.011 | [1] -0.005 | [2] -0.029 | [3] -0.001 | [4] -0.011 | [5] 0.003 | [6] 0.036 | [7] 0.032 | [8] -0.008 | IRAK-1-4 Inhibitor I -0.021 | ibrutinib -0.015 | [9] 0.002 | ralimetinib -0.044 | [10] -0.011 | [11] 0.016 | [12] -0.055 | [13] -0.027 | [14] -0.002 | [15] -0.033 | [16] 0.006

MYO6 isoform 6 (UniProt Q9UM54)
inactive: erlotinib -0.032 | [1] -0.175 | [2] 0.002 | [3] 0.072 | [4] -0.013 | [5] -0.013 | [6] -0.09 | [7] 0.013 | [8] 0.011 | IRAK-1-4 Inhibitor I 0.005 | ibrutinib 0.001 | [9] -0.007 | ralimetinib 0.038 | [10] -0.068 | [11] -0.002 | [12] 0.028 | [13] -0.154 | [14] -0.056 | [15] 0.003 | [16] -0.012

MUCL1 (UniProt Q96DR8)
inactive: erlotinib -0.178 | [1] -0.159 | [2] -0.259 | [3] -0.366 | [4] 0.252 | [5] -0.042 | [6] 0.604 | [7] 0.278 | [8] -0.559 | IRAK-1-4 Inhibitor I -0.963 | ibrutinib 0.096 | [9] -0.077 | ralimetinib -0.157 | [10] 0.147 | [11] 0.296 | [12] 0.085 | [13] 0.429 | [14] -0.014 | [15] -0.273 | [16] -0.197

NDC1 (UniProt Q9BTX1)
inactive: erlotinib -0.002 | [1] 0.015 | [2] 0.026 | [3] 0.047 | [4] 0.031 | [5] -0.005 | [6] -0.077 | [7] 0.013 | [8] 0.024 | IRAK-1-4 Inhibitor I 0.026 | ibrutinib 0.009 | [9] -0.02 | ralimetinib 0.007 | [10] -0.012 | [11] -0.013 | [12] -0.009 | [13] -0.031 | [14] 0.032 | [15] 0.007 | [16] 0.072

NCAPD2 (UniProt Q15021)
inactive: erlotinib 0.011 | [1] 0.011 | [2] -0.005 | [3] 0.032 | [4] -0.009 | [5] -0.016 | [6] -0.025 | [7] -0.007 | [8] -0.005 | IRAK-1-4 Inhibitor I -0.001 | ibrutinib -0.019 | [9] -0.019 | ralimetinib 0.03 | [10] -0.012 | [11] -0.031 | [12] 0.022 | [13] -0.003 | [14] 0.016 | [15] 0.036 | [16] -0.005

NAA15 (UniProt Q9BXJ9)
inactive: erlotinib -0.009 | [1] 0.033 | [2] -0.006 | [3] 0.005 | [4] -0.001 | [5] -0.043 | [6] 0 | [7] -0.007 | [8] -0.004 | IRAK-1-4 Inhibitor I -0.004 | ibrutinib -0.014 | [9] 0.004 | ralimetinib -0.001 | [10] 0.02 | [11] -0.012 | [12] -0.021 | [13] 0.016 | [14] -0.007 | [15] 0.002 | [16] 0.012

MYCBP (UniProt Q99417)
inactive: erlotinib 0.007 | [1] -0.001 | [2] 0.011 | [3] 0.007 | [4] 0 | [5] 0.019 | [6] 0 | [7] 0.024 | [8] 0.076 | IRAK-1-4 Inhibitor I 0.04 | ibrutinib 0.188 | [9] -0.009 | ralimetinib 0.021 | [10] -0.04 | [11] 0.002 | [12] -0.007 | [13] -0.017 | [14] 0.032 | [15] -0.002 | [16] -0.009
